# Library screening results

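Viability assay of Plasmodium falciparum sporozoites; the read-out is not stated. The concentration is filed as 10 mM, unlikely as a test dose, so the dose is not known. Direction is inferred from retests: higher values go with lower viability. Strong results were mostly tested again. Of about 34,000 compounds tested this way, about 280 (0.84%) reached 50% or more in at least one test.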

Each number is a percent effect as filed. The record does not define 0% and 100%; most values in the screen are far below 50% and negative numbers occur (in some assays of this library far below -100). Compounds were drawn at random from those tested, without regard to their results. Two or more numbers in one place are separate tests of the same structure; such repeats can differ widely.

structure,Percent Effect
COc1ccccc1OCCCn1c(C)c(C)oc1=O,-30.32%
O=C(O)C(F)(F)F.[H][C@]12CCNCC[C@@]1([H])S(=O)(=O)CCN2C(=O)c1ccccc1,-1.776%
CCOCC1CN(Cc2ccc(OC)cc2)Cc2nn(C)cc21.O=C(O)C(F)(F)F (stereo not drawn),3.244%
CC(NC(=O)NCc1ccc(Cl)cc1)c1ccccn1 (stereo not drawn),1.671%
CC(C(=O)N1CCCN(Cc2cscn2)CC1)N1CCOCC1 (stereo not drawn),-76.4%
Cc1cc(C)n(CC2CCCCN2CC(=O)NC2CCOCC2)n1 (stereo not drawn),14.15%
Cc1ccccc1C1CCCN1Cc1nc2c(cnn2C)c(=O)[nH]1 (stereo not drawn),4.385%
[H][C@]12CN(C(=O)C3CCC3)C[C@@]1([H])C(=O)N(c1ccccc1)C2,3.24%
O=C(CNc1ccc(OCC2CCOCC2)cc1)NCc1ccco1,-0.8953%
[H][C@@]12CN(C(=O)N(C)C)C[C@]1([H])C(=O)NC21CCN(C(=O)C(C)C)CC1,-0.8554%
CNS(=O)(=O)Cc1ccc(CNC(=O)Nc2cccnc2)cc1,10.61%
COc1cncc(N2CCN(Cc3ccncc3Cl)CC2)n1,-11.89%
[H][C@@]12CN(Cc3cccnc3)C[C@]1([H])C(=O)NC21CCN(C(C)=O)CC1,4.79%
CC(C)(O)CN1CCN(C(=O)c2cccn2Cc2ccncc2)CC1,6.389%
[H][C@@]12CCCN1C[C@H](CCSC)N(Cc1cnn(CC)c1C)C2,3.754%
Cc1cc(C)n(CC2CN(CC(=O)N3CCC3)CCO2)n1 (stereo not drawn),4.164%
O=C(C1CCCCC1)N1CCC(c2n[nH]c3nccnc23)CC1,-0.3347%
CNc1cnc(CC2COCCN(CCOc3ccccc3)C2)cn1 (stereo not drawn),1.448%
c1csc(N2CCCN(Cc3nc(C4CC4)no3)CC2)n1,-4.579%
CN(Cc1ccc(Cl)s1)C(=O)NCc1nnc2n1CCC2,12.96%
Cc1cnn(CC2CCCN2CCCS(C)(=O)=O)c1 (stereo not drawn),-2.103%
O=C(c1cn(CCN2CCCCC2)nn1)N1CCCCO1,3.395%
CN(CC(=O)NC(Cc1ccccc1)C1CCCC1)S(C)(=O)=O (stereo not drawn),-5.216%
O=C1NCCN1C1CCN(Cc2nc(-c3ccccc3)no2)CC1,-0.1952%
CCc1ccsc1C(=O)N1CCCN(Cc2cscn2)CC1,4.864%
COC(=O)CCNC(=O)c1cnc(Cc2ccc(F)cc2)s1,-13.73%
Cc1ccc(C(NC(=O)CC2CCN(C(C)C)CC2)C(=O)O)cc1 (stereo not drawn),-12.12%
Cc1cc(Br)c(O)c(-c2nc(N3CCCCC3)sc2C)c1,-8.325%
Cn1cc(Br)c(=O)c(NS(=O)(=O)c2cc(F)ccc2Cl)c1,-6.941%
CCc1nc(CCNC(=O)Nc2cc(C(N)=O)sc2C)cs1,7.94%
Cn1cnnc1C1CCN(C(=O)CCOc2ccc(Cl)cc2)CC1,2.569% & 2.147% & 9.89%
CC(C)c1nc(C2CCCN(c3cnc4ccccc4n3)C2)no1 (stereo not drawn),-8.546%
Cc1cnc(NC(C)Cc2cccnc2)nc1N(C)C (stereo not drawn),-4.211%
COc1c(C2CCCN2C(=O)c2sc(C)nc2C)c(C)nn1C (stereo not drawn),9.954%
COCCNC(=O)C1CN(Cc2csc(C)n2)Cc2ccnn2C1.O=C(O)C(F)(F)F (stereo not drawn),0.1684%
CCOc1ccnc(N2CCN(C(=O)c3cn[nH]c3CC)CC2)n1,-1.234%
Cc1cc2cccc(C(=O)N3CCOC4(CNCCOC4)C3)c2o1 (stereo not drawn),12.54%
[H][C@@]12CN(Cc3cccc(C)n3)C[C@]1([H])N(CCCN1CCOCC1)C(=O)O2,-3.863%
Cn1ccnc1CNC(=O)CCc1cccc(F)c1,6.021%
CC(Nc1cccc(CN2CCOC2=O)c1)C(=O)Nc1ccccc1F (stereo not drawn),-4.67%
CC(C)c1nccn1C1CCCN(C(=O)c2ccc3[nH]cnc3c2)C1 (stereo not drawn),-7.804%
CN(CC(=O)NCCc1ccccn1)C(=O)c1cccs1,-16.47%
CCC(C(=O)N1CCCSCC1)N1CCCC1=O (stereo not drawn),5.029%
O=C(O)C(F)(F)F.O=C1CCC2(CCCN(C(=O)c3ccccn3)CC2)N1 (stereo not drawn),4.962%
CC(C)c1noc(CCCC(=O)N2CCN(Cc3cccnc3)CC2)n1,14.56%
Cc1cc2c(=O)n(CC(=O)N3CCn4cccc4C3C(C)C)cnc2s1 (stereo not drawn),-1.837%

The values are deposited in ChEMBL (CHEMBL3988442, “University of Dundee, Small-Polar-MMV Screening Library” (2021)).